The supplement of paper PMC11060735
“And” between values parts separate entries of the source, which are not always exact repeats. Equal values may be shown once. Where a name gives a salt, the structure may show the parent alone. ± gives the standard deviation of the averaged measurements. The full ranking holds about 1,800 compounds; the median of “GFP- (p16Ink4a-) cell count relative to negative-control wells” is about 0.99, and the lowest 2% start at about 0.5. The list shows a part of the results.

Test system: mouse p16Ink4a+/- lung fibroblasts (INKBRITE, bleomycin-injured)
Assay: GFP- (p16Ink4a-) cell count relative to negative-control wells (fold of vehicle); higher = more p16Ink4a- cells surviving
Settings: 1 µM; 3 days

Structure (SMILES)	GFP-
C[C@](O)(COc1ccc(C#N)cc1)C(=O)Nc1ccc(C#N)c(C(F)(F)F)c1	1.08
CCC(COC(=O)c1cc(OC)c(OC)c(OC)c1)(c1ccccc1)N(C)C (stereo unspecified) [Trimebutine]	1
C=CC[C@]1(O)CC[C@H]2[C@@H]3CCC4=CC(=O)CCC4=C3C=C[C@@]21C [Altrenogest]	0.943
N[C@@H]1C[C@H]1c1ccccc1 [Tranylcypromine (2-PCPA) HCl]	0.967 ± 0.083
O=c1ccc2cc(O[C@@H]3O[C@H](CO)[C@@H](O)[C@H](O)[C@H]3O)c(O)cc2o1 [Esculin]	1.19
NCC(O)c1ccc(O)cc1 (racemic) [(¬±)-octopamine Hydrochloride, Octopamine Hydrochloride]	1
Cc1cccc(C)c1NC1=NCCCS1 [Xylazine Hydrochloride, Xylazine]	1.04
C1=C2CCCN[C@H]2[C@@H]2C[C@H]1[C@H]1CCCCN1C2 [Aloperine]	0.98
CNCC(=O)c1ccc(O)c(O)c1 [Adrenolone Hydrochloride]	1.05
CC(C)N(CCNC(=O)CN1CCCC1=O)C(C)C [Pramiracetam]	1.12
CCOc1ccccc1-n1c(C(C)N2CCN(C(=O)COc3ccc(Cl)cc3)CC2)nc2ccccc2c1=O (stereo unspecified) [Erastin]	0.31
COC(=O)C1=CCCN(C)C1 [Arecoline]	0.954
Cc1cc2c(C(C)C)c(O)c(O)c(C=O)c2c(O)c1-c1c(C)cc2c(C(C)C)c(O)c(O)c(C=O)c2c1O [Gossypol]	0.665 and 0.706
CCN(C)C(=O)Oc1cccc([C@H](C)N(C)C)c1 [Rivastigmine]	1
Cc1ccc(-n2nccn2)c(C(=O)N2CCN(c3nc4cc(Cl)ccc4o3)CC[C@H]2C)c1 [Suvorexant]	1.13
CCCC[N+]1(C)[C@@H]2C[C@@H](OC(=O)[C@H](CO)c3ccccc3)C[C@H]1[C@@H]1O[C@@H]12 (stereo partly specified) [Scopolamine butylbromide]	1.13
COc1ccc(C(=O)N2CCCC2=O)cc1 [Aniracetam]	0.968
O=S(=O)(F)Cc1ccccc1	0.899
Cn1cc(C2=C(c3cn(C4CCN(Cc5ccccn5)CC4)c4ccccc34)C(=O)NC2=O)c2ccccc21 [Enzastaurin]	0.807
CN1[C@@H]2C[C@@H](O)C[C@H]1[C@@H]1O[C@@H]12 [Scopine HCl]	1.11 and 1.08
C=C1C[C@@H]2[C@H](CC[C@]3(C)C(=O)CC[C@@H]23)[C@@]2(C)C=CC(=O)C=C12 [Exemestane]	1.13
NCCc1c[nH]c2ccc(O)cc12 [Serotonin Hydrochloride]	1.06
O=C1CC[C@@]2(O)[C@H]3Cc4ccc(O)c5c4[C@@]2(CCN3CC2CC2)[C@H]1O5 [Naltrexone;  _x000D_  naltrexone depot]	0.877
CCC1=C[C@@H]2CN3CCc4c([nH]c5ccccc45)[C@@](C(=O)OC)(C2)[C@@H]13 [Catharanthine]	1.02

Structure (SMILES)	GFP-
CN1CCC(c2c[nH]c3ccc(O)cc23)CC1	1.02
O=C1CCC[C@@H]2[C@H]3CCCN4CCC[C@@H](CN12)[C@@H]34 [(+)-Matrine]	0.954
NC(=O)CN1CCCC1=O [Piracetam]	0.979
C[C@@H]1CC[C@@]2(OC1)O[C@H]1C[C@H]3[C@@H]4CC=C5C[C@@H](O[C@@H]6O[C@H](CO)[C@@H](O[C@@H]7O[C@@H](C)[C@H](O)[C@@H](O)[C@H]7O)[C@H](O)[C@H]6O[C@@H]6O[C@@H](C)[C@H](O)[C@@H](O)[C@H]6O)CC[C@]5(C)[C@H]4CC[C@]3(C)[C@H]1[C@@H]2C [Dioscin]	1.03
CN1C2CCC1CC(OC(=O)[C@H](CO)c1ccccc1)C2 (stereo partly specified) [Hyoscyamine]	1.21
Cc1cccc(C(C)c2c[nH]cn2)c1C (stereo unspecified) [Medetomidine HCl]	1.16
CN1[C@@H]2CC[C@H]1C[C@@H](OC(=O)C(CO)c1ccccc1)C2 (stereo partly specified) [Atropine]	0.843
CC(=O)OCC1=C(C(=O)O)N2C(=O)[C@H](N)[C@H]2SC1 [7-Aminocephalosporanic acid]	1.1
CCC1(c2cccc(O)c2)CCCCN(C)C1 (stereo unspecified) [Meptazinol HCl]	1
C[C@@H]1O[C@@H](O[C@H]2C[C@@H](O)[C@]3(CO)[C@H]4[C@H](O)C[C@]5(C)[C@@H](C6=CC(=O)OC6)CC[C@]5(O)[C@@H]4CC[C@]3(O)C2)[C@H](O)[C@H](O)[C@H]1O [Ouabain]	0.953
C/C(=C\c1csc(C)n1)[C@@H]1C[C@@H]2O[C@@H]2CCC[C@H](C)[C@H](O)[C@@H](C)C(=O)C(C)(C)[C@@H](O)CC(=O)O1 [Epothilone A]	0.423
C=CCN1CC[C@]23c4c5ccc(O)c4O[C@H]2C(=O)CC[C@@]3(O)[C@H]1C5 [Naloxone]	1.04
COc1cc(OC)c(OC)cc1C=O [Asarylaldehyde]	0.887
Cc1cc(C(=O)CN2CCCC2)c(C)n1-c1ccc(F)cc1	0.961
C[C@]12CC[C@H](O)C[C@@H]1CC[C@@H]1[C@@H]2CC[C@]2(C)C(=O)CC[C@@H]12 [Epiandrosterone]	0.976
CC(=O)Nc1ccc(Cc2ccc(NC(C)=O)cc2)cc1	0.997
Nc1nc(N)nc(NC2CC2)n1 [Cyromazine]	1.1
c1ccc2c(c1)sc1ccccc12 [Dibenzothiophene]	0.972
CC(O)(CS(=O)(=O)c1ccc(F)cc1)C(=O)Nc1ccc(C#N)c(C(F)(F)F)c1 (stereo unspecified) [(r)-bicalutamide, Bicalutamide]	0.96
Cc1cc(O)ccc1Cl [Chlorocresol]	0.925
COc1cc(-n2c(=S)[nH]c3ccccc3c2=O)c(Cl)cc1Cl [Mdivi-1]	1.12
Cc1cc(C(C#N)c2ccc(Cl)cc2)c(Cl)cc1NC(=O)c1cc(I)cc(I)c1O (stereo unspecified) [Closantel]	0.99 and 0.986
Cc1cccc([C@H](C)c2c[nH]cn2)c1C [Dexmedetomidine]	1.06
O=C(Oc1ccc([N+](=O)[O-])cc1)N1CCC(C(O)(c2ccc3c(c2)OCO3)c2ccc3c(c2)OCO3)CC1	0.875

18 entries from above, bar-delimited:
Structure (SMILES) | GFP-
NC(=O)CN1CCCC1=O [Piracetam] | 0.979
C[C@@H]1CC[C@@]2(OC1)O[C@H]1C[C@H]3[C@@H]4CC=C5C[C@@H](O[C@@H]6O[C@H](CO)[C@@H](O[C@@H]7O[C@@H](C)[C@H](O)[C@@H](O)[C@H]7O)[C@H](O)[C@H]6O[C@@H]6O[C@@H](C)[C@H](O)[C@@H](O)[C@H]6O)CC[C@]5(C)[C@H]4CC[C@]3(C)[C@H]1[C@@H]2C [Dioscin] | 1.03
CN1C2CCC1CC(OC(=O)[C@H](CO)c1ccccc1)C2 (stereo partly specified) [Hyoscyamine] | 1.21
Cc1cccc(C(C)c2c[nH]cn2)c1C (stereo unspecified) [Medetomidine HCl] | 1.16
CN1[C@@H]2CC[C@H]1C[C@@H](OC(=O)C(CO)c1ccccc1)C2 (stereo partly specified) [Atropine] | 0.843
CC(=O)OCC1=C(C(=O)O)N2C(=O)[C@H](N)[C@H]2SC1 [7-Aminocephalosporanic acid] | 1.1
CCC1(c2cccc(O)c2)CCCCN(C)C1 (stereo unspecified) [Meptazinol HCl] | 1
C[C@@H]1O[C@@H](O[C@H]2C[C@@H](O)[C@]3(CO)[C@H]4[C@H](O)C[C@]5(C)[C@@H](C6=CC(=O)OC6)CC[C@]5(O)[C@@H]4CC[C@]3(O)C2)[C@H](O)[C@H](O)[C@H]1O [Ouabain] | 0.953
C/C(=C\c1csc(C)n1)[C@@H]1C[C@@H]2O[C@@H]2CCC[C@H](C)[C@H](O)[C@@H](C)C(=O)C(C)(C)[C@@H](O)CC(=O)O1 [Epothilone A] | 0.423
C=CCN1CC[C@]23c4c5ccc(O)c4O[C@H]2C(=O)CC[C@@]3(O)[C@H]1C5 [Naloxone] | 1.04
COc1cc(OC)c(OC)cc1C=O [Asarylaldehyde] | 0.887
Cc1cc(C(=O)CN2CCCC2)c(C)n1-c1ccc(F)cc1 | 0.961
C[C@]12CC[C@H](O)C[C@@H]1CC[C@@H]1[C@@H]2CC[C@]2(C)C(=O)CC[C@@H]12 [Epiandrosterone] | 0.976
CC(=O)Nc1ccc(Cc2ccc(NC(C)=O)cc2)cc1 | 0.997
Nc1nc(N)nc(NC2CC2)n1 [Cyromazine] | 1.1
c1ccc2c(c1)sc1ccccc12 [Dibenzothiophene] | 0.972
CC(O)(CS(=O)(=O)c1ccc(F)cc1)C(=O)Nc1ccc(C#N)c(C(F)(F)F)c1 (stereo unspecified) [(r)-bicalutamide, Bicalutamide] | 0.96
Cc1cc(O)ccc1Cl [Chlorocresol] | 0.925

Next part

Structure (SMILES)	GFP-
COc1ccc(CC2NCCc3cc(OC)c(OC)cc32)cc1OC (stereo unspecified) [Tetrahydropapaverine HCl]	0.842
O=P1(NCCCl)OCCCN1CCCl (stereo unspecified) [Ifosfamide]	1.04
COc1ccc(C(CN(C)C)C2(O)CCCCC2)cc1 (stereo unspecified) [Venlafaxine, Venlafaxine Hydrochloride]	1.08
O=C(O)c1nn(Cc2ccc(Cl)cc2Cl)c2ccccc12 [Lonidamine]	1.01
C/C=C(\C)C(=O)N[C@@H](c1ccccc1)[C@@H](O)C(=O)O[C@H]1C[C@@]2(O)[C@@H](OC(=O)c3ccccc3)[C@@H]3[C@]4(OC(C)=O)CO[C@@H]4C[C@H](O)[C@@]3(C)C(=O)[C@H](OC(C)=O)C(=C1C)C2(C)C [Cephalomannine]	0.683
C[N+]1(C)[C@@H]2C[C@@H](OC(=O)[C@H](CO)c3ccccc3)C[C@H]1[C@@H]1O[C@@H]12 [Methscopolamine Bromide]	1.03
Oc1nc2ccc(Cl)cc2c(N[C@@H]2CN3CCC2CC3)c1-c1nc2ccccc2[nH]1	0.944
C[N+](C)(C)CCCCCCCCCC[N+](C)(C)C [Decamethonium]	0.868
C[C@@H]1[C@H](O)[C@@H](C)/C=C/C=C/CC/C=C/C=C/C=C/C=C/[C@H](O[C@H]2O[C@@H](C)[C@H](O)[C@@H](N)[C@H]2O)C[C@@H]2O[C@](O)(C[C@@H](O)[C@H](O)CC[C@@H](O)C[C@@H](O)C[C@@H](O)CC(=O)O[C@H]1C)C[C@H](O)[C@H]2C(=O)O [Nystatin (Fungicidin)]	0.951
CC(C)(C)[C@]1(O)C[C@@H]2OC(=O)C[C@@]23C(=O)O[C@@H]2OC(=O)[C@H](O)C213 (stereo partly specified) [Bilobalide]	0.96
C=C[C@H]1CN2CCC1C[C@H]2[C@H](O)c1ccnc2ccccc12 (stereo partly specified) [Cinchonidine]	1.09
Cc1ccccc1-n1c(Cn2ncc3c(N)ncnc32)nc2cccc(C)c2c1=O	1.04
CN(C)Cc1c[nH]c2ccccc12 [Gramine]	1.12
CCN1CCN(C(=O)Cc2ccc(Nc3ncc(F)c(Nc4ccc(C(=O)Nc5ccccc5Cl)cc4)n3)cc2)CC1 [Aurora A Inhibitor I]	0.961 ± 0.071
CN1CCc2cc3c(cc2[C@H]1[C@@H]1OC(=O)c2c1ccc1c2OCO1)OCO3 [Bicuculline]	1.12
CN1CCCCC1Cn1cc(C(=O)c2cc([N+](=O)[O-])ccc2I)c2ccccc21 (stereo unspecified)	1.09
C[C@]12CC[C@H](O)CC1=CC[C@@H]1[C@@H]2CC[C@]2(C)C(=O)CC[C@@H]12 [Prasterone]	1.19
CC[C@H](C(=O)[C@H](C)[C@@H](O)[C@@H](C)[C@@H]1O[C@@H]([C@@H](CC)C(=O)O)CC[C@H]1C)[C@H]1O[C@]2(C=C[C@@H](O)[C@]3(CC[C@@](C)([C@H]4CC[C@](O)(CC)[C@H](C)O4)O3)O2)[C@H](C)C[C@H]1C [Salinomycin]	0.714
C[C@]12CC[C@H]3[C@@H](CC[C@@]45O[C@@H]4C(O)=C(C#N)C[C@]35C)[C@@H]1CC[C@@H]2O [Trilostane]	0.98
Cc1cc(SCc2sc(-c3ccc(C(F)(F)F)c(F)c3)nc2C)ccc1OCC(=O)O	1.02
CC(C)[C@]12O[C@H]1[C@@H]1O[C@]13[C@]1(O[C@H]1C[C@H]1C4=C(CC[C@@]13C)C(=O)OC4)[C@@H]2O [Triptolide]	0.366
CCN(CC)C(=O)c1ccc(C2=CC3(CCNCC3)Oc3cccc(O)c32)cc1	0.95
CCc1c(C(=O)C(N)=O)c2c(OCC(=O)O)cccc2n1Cc1ccccc1 [Varespladib]	1.27
